The list shows a part of the results. Most values lie at the level of the controls, where differences are scatter.

Chains of the proteins cited; added tags and fusions are not shown. Lines headed by an entry give the natural chain unless they say otherwise; changes in a name come on top.
UniProt P18390: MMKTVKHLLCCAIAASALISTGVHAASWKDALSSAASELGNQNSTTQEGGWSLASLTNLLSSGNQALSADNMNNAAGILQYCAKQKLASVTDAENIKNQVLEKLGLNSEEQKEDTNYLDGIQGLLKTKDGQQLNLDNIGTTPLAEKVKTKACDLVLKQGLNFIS
UniProt P17888: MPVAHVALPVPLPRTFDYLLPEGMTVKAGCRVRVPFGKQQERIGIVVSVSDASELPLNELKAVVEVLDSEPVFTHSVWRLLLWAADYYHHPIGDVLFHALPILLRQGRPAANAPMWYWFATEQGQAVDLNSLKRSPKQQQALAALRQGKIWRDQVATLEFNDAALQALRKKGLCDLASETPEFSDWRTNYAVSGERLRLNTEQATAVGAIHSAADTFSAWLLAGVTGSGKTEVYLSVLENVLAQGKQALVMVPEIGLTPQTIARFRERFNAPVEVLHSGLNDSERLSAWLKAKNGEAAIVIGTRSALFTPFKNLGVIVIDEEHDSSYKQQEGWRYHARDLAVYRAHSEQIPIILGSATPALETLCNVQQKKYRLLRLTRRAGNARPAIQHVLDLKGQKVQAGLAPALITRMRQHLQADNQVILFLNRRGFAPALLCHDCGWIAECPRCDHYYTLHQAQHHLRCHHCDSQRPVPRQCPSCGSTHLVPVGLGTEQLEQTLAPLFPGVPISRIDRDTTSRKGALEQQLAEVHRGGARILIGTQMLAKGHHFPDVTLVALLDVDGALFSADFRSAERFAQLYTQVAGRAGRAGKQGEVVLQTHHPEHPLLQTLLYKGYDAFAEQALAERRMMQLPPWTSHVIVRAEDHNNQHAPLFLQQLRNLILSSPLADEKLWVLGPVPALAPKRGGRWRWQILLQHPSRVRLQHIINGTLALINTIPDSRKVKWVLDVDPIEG
UniProt P17846: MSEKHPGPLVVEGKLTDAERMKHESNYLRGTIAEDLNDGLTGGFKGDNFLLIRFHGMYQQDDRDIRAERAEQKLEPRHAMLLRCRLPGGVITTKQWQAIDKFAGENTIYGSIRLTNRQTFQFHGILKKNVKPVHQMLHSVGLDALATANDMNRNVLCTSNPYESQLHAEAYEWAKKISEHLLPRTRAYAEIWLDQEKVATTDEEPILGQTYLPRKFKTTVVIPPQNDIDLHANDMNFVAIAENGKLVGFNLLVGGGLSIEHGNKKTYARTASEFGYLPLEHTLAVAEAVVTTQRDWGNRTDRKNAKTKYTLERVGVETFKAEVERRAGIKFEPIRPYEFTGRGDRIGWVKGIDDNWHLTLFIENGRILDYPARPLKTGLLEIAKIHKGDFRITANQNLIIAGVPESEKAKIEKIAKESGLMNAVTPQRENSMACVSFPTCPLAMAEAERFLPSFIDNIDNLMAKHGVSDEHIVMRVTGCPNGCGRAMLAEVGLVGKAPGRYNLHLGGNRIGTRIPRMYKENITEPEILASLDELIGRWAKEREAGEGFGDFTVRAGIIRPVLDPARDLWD
UniProt P19768: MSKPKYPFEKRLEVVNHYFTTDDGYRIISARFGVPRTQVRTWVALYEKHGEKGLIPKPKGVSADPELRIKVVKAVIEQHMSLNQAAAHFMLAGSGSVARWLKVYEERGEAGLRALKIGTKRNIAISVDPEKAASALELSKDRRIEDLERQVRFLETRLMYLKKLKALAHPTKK
UniProt P12995: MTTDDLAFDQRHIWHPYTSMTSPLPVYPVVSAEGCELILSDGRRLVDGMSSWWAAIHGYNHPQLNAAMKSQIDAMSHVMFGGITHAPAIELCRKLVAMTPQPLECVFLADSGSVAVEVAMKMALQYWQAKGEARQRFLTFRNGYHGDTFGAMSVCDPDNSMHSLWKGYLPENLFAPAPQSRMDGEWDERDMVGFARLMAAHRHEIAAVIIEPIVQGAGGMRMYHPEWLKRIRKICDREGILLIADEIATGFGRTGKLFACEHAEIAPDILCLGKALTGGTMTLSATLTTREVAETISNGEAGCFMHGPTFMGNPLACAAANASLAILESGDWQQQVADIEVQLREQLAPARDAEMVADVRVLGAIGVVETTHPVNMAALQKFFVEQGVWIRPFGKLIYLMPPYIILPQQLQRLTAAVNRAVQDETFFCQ
UniProt P19317: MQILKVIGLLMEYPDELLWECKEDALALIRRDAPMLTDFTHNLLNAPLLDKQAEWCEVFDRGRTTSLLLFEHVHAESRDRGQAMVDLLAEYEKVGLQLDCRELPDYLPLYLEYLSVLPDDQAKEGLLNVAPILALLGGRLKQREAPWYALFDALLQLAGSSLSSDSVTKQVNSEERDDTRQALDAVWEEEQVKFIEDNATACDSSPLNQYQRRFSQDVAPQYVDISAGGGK
UniProt P10346: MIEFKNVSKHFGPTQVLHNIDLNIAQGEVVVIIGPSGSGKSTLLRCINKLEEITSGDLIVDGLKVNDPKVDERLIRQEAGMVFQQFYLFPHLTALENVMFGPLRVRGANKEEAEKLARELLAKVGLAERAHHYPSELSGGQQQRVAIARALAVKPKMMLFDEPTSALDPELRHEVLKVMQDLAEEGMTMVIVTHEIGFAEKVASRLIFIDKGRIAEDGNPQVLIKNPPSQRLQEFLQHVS
UniProt P24173: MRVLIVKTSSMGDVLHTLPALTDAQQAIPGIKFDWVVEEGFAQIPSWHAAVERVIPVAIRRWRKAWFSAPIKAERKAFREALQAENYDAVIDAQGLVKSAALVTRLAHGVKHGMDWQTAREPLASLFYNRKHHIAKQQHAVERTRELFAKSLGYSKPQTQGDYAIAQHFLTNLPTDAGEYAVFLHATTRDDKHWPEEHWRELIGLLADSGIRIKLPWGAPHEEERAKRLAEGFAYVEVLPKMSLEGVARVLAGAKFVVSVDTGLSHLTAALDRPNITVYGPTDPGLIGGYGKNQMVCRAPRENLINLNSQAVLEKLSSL
UniProt P10371: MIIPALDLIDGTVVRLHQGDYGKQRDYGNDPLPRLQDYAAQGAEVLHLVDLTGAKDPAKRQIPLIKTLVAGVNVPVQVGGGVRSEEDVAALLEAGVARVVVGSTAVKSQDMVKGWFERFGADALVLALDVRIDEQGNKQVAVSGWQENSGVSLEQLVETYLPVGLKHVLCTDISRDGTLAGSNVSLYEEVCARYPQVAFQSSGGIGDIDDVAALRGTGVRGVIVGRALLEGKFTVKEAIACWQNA
UniProt P10908: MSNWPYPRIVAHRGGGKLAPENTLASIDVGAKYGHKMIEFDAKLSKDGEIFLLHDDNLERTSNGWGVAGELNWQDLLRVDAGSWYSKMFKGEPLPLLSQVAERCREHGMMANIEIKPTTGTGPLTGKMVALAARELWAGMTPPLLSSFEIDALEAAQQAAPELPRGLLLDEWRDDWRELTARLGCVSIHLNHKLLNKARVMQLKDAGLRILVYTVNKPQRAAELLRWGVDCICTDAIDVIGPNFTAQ
UniProt P21420: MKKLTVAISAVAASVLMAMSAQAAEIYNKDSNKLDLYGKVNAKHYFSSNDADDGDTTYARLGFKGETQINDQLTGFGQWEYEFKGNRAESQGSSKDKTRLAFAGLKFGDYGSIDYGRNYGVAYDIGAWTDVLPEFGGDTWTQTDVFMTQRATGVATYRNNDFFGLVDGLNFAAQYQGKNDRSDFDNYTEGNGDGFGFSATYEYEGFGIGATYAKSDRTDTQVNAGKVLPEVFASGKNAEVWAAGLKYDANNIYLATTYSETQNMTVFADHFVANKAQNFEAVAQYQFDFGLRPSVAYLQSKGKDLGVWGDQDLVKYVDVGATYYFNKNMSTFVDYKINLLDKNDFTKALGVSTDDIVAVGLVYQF
UniProt P16431: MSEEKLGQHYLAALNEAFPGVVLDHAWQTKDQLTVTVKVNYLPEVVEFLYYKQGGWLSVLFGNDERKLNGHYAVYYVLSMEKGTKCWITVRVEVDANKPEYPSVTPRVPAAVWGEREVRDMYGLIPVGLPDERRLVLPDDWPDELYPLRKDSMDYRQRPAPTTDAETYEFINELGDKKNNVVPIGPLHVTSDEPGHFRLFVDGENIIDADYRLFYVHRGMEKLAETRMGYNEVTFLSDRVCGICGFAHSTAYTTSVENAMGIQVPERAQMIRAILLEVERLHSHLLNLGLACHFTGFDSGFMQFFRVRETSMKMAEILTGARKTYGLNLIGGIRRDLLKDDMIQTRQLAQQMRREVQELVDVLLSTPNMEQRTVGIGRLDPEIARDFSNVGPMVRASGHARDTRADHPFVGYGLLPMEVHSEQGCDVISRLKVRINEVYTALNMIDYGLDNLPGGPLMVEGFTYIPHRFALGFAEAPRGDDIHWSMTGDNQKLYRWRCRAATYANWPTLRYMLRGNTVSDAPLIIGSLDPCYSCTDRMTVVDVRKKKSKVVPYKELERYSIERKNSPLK
UniProt P15038: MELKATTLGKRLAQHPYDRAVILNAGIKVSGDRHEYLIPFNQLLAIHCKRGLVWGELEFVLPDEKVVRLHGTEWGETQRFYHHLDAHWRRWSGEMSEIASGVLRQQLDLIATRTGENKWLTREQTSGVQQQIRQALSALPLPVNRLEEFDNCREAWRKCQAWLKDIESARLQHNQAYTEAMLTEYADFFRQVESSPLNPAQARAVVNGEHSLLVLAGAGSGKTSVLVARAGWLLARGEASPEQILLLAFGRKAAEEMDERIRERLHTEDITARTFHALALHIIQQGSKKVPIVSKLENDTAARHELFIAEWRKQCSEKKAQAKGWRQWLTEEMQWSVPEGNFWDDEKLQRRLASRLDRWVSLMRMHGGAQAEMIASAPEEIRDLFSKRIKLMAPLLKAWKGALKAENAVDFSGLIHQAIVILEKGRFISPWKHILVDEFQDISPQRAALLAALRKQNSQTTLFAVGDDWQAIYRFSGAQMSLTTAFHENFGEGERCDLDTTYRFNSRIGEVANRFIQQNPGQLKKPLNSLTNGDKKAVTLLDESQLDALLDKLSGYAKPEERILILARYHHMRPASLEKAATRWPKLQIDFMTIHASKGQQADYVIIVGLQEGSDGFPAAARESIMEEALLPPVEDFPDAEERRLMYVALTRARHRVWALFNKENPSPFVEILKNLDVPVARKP
UniProt P0CF66: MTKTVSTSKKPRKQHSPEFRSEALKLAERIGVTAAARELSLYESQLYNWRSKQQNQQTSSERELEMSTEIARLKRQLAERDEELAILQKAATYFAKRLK
UniProt P19926: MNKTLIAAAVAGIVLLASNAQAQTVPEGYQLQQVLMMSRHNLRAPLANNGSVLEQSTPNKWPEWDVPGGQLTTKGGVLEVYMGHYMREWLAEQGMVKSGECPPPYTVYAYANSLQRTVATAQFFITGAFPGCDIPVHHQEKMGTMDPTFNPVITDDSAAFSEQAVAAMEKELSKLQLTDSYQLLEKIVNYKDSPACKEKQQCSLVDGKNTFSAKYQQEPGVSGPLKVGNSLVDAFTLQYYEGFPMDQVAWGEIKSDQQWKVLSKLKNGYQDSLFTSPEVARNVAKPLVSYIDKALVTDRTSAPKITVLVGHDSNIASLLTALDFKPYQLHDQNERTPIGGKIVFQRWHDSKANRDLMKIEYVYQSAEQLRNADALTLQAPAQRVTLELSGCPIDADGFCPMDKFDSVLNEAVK
UniProt P0CF08: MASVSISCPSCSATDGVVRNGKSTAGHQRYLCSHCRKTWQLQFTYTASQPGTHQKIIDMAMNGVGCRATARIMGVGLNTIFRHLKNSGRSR
UniProt P15047: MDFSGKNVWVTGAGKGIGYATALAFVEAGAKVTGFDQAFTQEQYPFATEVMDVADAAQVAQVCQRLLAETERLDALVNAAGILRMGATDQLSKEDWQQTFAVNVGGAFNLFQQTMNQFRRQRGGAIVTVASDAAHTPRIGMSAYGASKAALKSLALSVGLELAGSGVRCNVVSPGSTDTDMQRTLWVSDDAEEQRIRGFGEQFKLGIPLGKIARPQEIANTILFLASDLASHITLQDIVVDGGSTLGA
UniProt P12758: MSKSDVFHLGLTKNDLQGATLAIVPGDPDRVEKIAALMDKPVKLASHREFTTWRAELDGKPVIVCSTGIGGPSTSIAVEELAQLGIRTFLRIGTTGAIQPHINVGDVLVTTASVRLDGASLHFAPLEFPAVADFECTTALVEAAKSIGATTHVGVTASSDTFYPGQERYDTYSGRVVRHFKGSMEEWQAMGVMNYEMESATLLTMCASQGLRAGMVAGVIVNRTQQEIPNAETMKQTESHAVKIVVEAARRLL
UniProt P24174: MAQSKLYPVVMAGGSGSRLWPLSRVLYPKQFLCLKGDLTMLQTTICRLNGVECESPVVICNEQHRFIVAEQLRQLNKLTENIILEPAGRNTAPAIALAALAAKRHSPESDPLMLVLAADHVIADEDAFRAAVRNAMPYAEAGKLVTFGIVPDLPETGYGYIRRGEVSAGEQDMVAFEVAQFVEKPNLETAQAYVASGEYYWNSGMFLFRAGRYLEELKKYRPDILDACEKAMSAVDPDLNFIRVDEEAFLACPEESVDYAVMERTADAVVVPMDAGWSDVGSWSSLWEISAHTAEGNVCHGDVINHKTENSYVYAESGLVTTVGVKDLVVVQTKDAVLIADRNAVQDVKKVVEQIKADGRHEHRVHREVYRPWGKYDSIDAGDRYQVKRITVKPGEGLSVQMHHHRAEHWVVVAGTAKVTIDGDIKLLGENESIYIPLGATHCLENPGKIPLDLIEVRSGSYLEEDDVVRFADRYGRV

Compound in the test: CC1(C)S[C@@H]2[C@H](NC(=O)[C@H](N)c3ccccc3)C(=O)N2[C@H]1C(=O)O [ampicillin]
Nature of the test: log2 fold change of tryptic peptide abundance, ligand vs vehicle (limited proteolysis) (log2 ratio); higher = more trypsin-susceptible (destabilized). Conditions: ligand concentration: 10 uM; sample: E. coli crude lysate.
Consider “UniProt P18390 (peptide sequence: QKLASVTDAENIKNQVLEK, peptide start residue: 85)”, for which the log2 fold change is -0.16.

“UniProt P17888 (peptide sequence: FNAPVEVLHSGLNDSER, peptide start residue: 269)”: the log2 fold change is 0.297.

For “UniProt P17846 (peptide sequence: ILDYPARPLKTGLLEIAK, peptide start residue: 367)”, the log2 fold change is -0.635.

Regarding “UniProt P19768 (peptide sequence: RIEDLER, peptide start residue: 143)”, the log2 fold change is 0.268.

Take “UniProt P12995 (peptide sequence: DAEMVADVR, peptide start residue: 352)”: the log2 fold change was found to be 0.308.

Regarding “UniProt P19317 (peptide sequence: TTSLLLFEHVHAESR, peptide start residue: 64)”, the log2 fold change is -1.11.

For the target “UniProt P11557 (peptide sequence: GEPQINFDDIELDDTDDRRPTR, peptide start residue: 35)”, the log2 fold change came to 0.184.

On to “UniProt P10346 (peptide sequence: GANKEEAEK, peptide start residue: 107)”, for which the log2 fold change was determined as 1.2.

In the case of “UniProt P24173 (peptide sequence: ELIGLLADSGIR, peptide start residue: 201)”, the log2 fold change was 0.227.

As for “UniProt P10371 (peptide sequence: HVLCTDISR, peptide start residue: 167)”, the log2 fold change came out at 0.339.

Consider “UniProt P10908 (peptide sequence: CREHGMMANIEIKPTTGTGPLTGK, peptide start residue: 104)”, for which the log2 fold change amounted to 0.285.

Regarding “UniProt P21420 (peptide sequence: VLPEVFASGK, peptide start residue: 227)”, the log2 fold change was -0.227.

Take “UniProt P16431 (peptide sequence: MAEILTGAR, peptide start residue: 314)”: the log2 fold change was -0.219.

Turning to “UniProt P15038 (peptide sequence: YHHMRPASLEK, peptide start residue: 569)”, the log2 fold change was 0.462.

In the case of “UniProt P0CF66 (peptide sequence: SKQQNQQTSSERELEMSTEIAR, peptide start residue: 51)”, the log2 fold change is -0.706.

For “UniProt P19926 (peptide sequence: GGVLEVYMGHYMR, peptide start residue: 75)”, the log2 fold change was -0.199.

Turning to “UniProt P23836 (peptide sequence: ELSINDEVIK, peptide start residue: 140)”, the log2 fold change stood at 0.12.

For “UniProt P0CF08 (peptide sequence: IMGVGLNTIFR, peptide start residue: 72)”, the log2 fold change worked out at 0.103.

Turning to “UniProt P15047 (peptide sequence: GGAIVTVASDAAHTPR, peptide start residue: 123)”, the log2 fold change is 0.254.

In the case of “UniProt P12758 (peptide sequence: QTESHAVK, peptide start residue: 236)”, the log2 fold change was 0.422.

“UniProt P24174 (peptide sequence: FIVAEQLR, peptide start residue: 66)”: the log2 fold change is -0.0976.

In the case of “UniProt P15005 (peptide sequence: KNIILQGPPGVGK, peptide start residue: 195)”, the log2 fold change was -0.598.

Values taken from the supplement of paper PMC12819154, “High-throughput peptide-centric local stability assay extends protein–ligand identification to membrane proteins, tissues and bacteria” (Nature Structural & Molecular Biology, 2025).
